Mtb heat-shock: 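Assay on Mycobacterium tuberculosis, filed only as a heat shock assay from Cornell; the read-out is not stated. The concentration is filed as 10 mM, unlikely as a test dose, so the dose is not known. Higher reads as stronger inhibition (inferred: compounds with an IC50 in retests scored well above the rest). Of about 69,000 compounds tested this way, about 930 (1.4%) reached 50% or more in at least one test.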
Mtb growth Cornell: 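Whole-cell assay for inhibitors of Mycobacterium tuberculosis growth, labelled Cornell in the record; the read-out is not stated. The concentration is filed as 10 mM, unlikely as a test dose, so the dose is not known. The record gives no direction; compounds strong in two other growth screens of this library score well above the rest, so higher reads as stronger inhibition. Of about 53,000 compounds tested this way, about 900 (1.7%) reached 50% or more in at least one test.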
LdMetRS: 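Primary screen of methionyl-tRNA synthetase; the read-out is not stated. Target: Methionyl-tRNA synthetase (putative), Leishmania donovani (UniProt E9BF75). The test concentration is not given. Values are per cent inhibition. Of about 68,000 compounds tested this way, about 24 (0.035%) reached 50% or more in at least one test.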

Sequences of proteins named here, by UniProt entry; tags and fusion partners are left off.
UniProt E9BF75, entry or part of it: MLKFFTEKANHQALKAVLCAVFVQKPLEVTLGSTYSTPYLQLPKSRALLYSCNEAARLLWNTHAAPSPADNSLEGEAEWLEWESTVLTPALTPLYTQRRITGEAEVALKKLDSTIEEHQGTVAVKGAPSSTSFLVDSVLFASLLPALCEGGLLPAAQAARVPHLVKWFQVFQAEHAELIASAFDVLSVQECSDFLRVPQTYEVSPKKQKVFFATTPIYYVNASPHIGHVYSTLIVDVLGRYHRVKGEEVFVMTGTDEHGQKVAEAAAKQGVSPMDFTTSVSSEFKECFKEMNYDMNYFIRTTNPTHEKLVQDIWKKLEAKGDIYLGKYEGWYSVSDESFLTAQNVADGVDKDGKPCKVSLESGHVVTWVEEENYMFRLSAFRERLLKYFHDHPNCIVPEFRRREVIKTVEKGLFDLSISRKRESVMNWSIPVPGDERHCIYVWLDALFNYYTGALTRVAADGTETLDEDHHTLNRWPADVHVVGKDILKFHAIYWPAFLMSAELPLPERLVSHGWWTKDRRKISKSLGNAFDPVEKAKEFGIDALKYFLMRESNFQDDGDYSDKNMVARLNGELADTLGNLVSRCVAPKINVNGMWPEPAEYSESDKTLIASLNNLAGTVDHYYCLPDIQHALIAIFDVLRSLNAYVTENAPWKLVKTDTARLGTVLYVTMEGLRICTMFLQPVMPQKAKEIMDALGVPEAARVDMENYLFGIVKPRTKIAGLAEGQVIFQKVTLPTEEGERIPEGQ

All values are in %.
The record does not define 0% and 100%; most values in the screen are far below 50% and negative numbers occur (in some assays of this library far below -100).
The compounds are a random part of those screened.

For CC(O)CN1CCN(C(=O)c2ccc(Cn3cccc3)cc2)CC1 (stereo not given) the result was Mtb heat-shock: 3.616%; Mtb growth Cornell: 17.96%; LdMetRS: 11.76%.
For O=C(CSc1ccc2c(c1)OCCO2)NS(=O)(=O)C1CCCCC1 the result was Mtb heat-shock: 9.58%; Mtb growth Cornell: 3.778%; LdMetRS: 12.39%.
For CCS(=O)(=O)c1ncc(CN(C)Cc2ccccn2)n1CCOC the result was Mtb heat-shock: 11.5%; Mtb growth Cornell: 31.52%; LdMetRS: 11.11%.
For O=C(NCCc1cccs1)N1CCCC2(CCC(=O)N(C3CC3)C2)C1 (stereo not given) the result was Mtb heat-shock: -4.067%; Mtb growth Cornell: -16.14%; LdMetRS: 13.71%.
For Cc1cn2nc(N3CCCC3C(=O)N3CCOCC3)sc2n1 (stereo not given) the result was Mtb heat-shock: -1.315%; Mtb growth Cornell: 17.01%; LdMetRS: 11.24%.
For O=C(CCn1ccc(=O)[nH]c1=O)N1CCC(Oc2ncccc2Cl)CC1 the result was Mtb heat-shock: 5.785%; Mtb growth Cornell: 20.85%; LdMetRS: 12.95%.
For O=C(c1sccc1Cl)N1CCC(Cn2cc(CO)nn2)CC1 the result was Mtb heat-shock: 9.081%; Mtb growth Cornell: 28.9%; LdMetRS: 12.66%.
For CC(C)(C)C(O)CN1CCN(CCOCC(F)(F)F)CC1 (stereo not given) the result was Mtb heat-shock: -12.76%; LdMetRS: 12.18%.
For Cl.O=C1CC2(CCCNC2)C(=O)N1Cc1cccc(Cl)c1 (stereo not given) the result was Mtb heat-shock: -18.02%; Mtb growth Cornell: -26.22%.
For COc1cccc(-c2cc(C3CCCNC3)ccn2)c1 (stereo not given) the result was Mtb heat-shock: 19.75%; Mtb growth Cornell: 10.24%; LdMetRS: 8.861%.
For Cc1cccc(C(=O)N2CCC3(CCN(c4cnn(C)c4)C3=O)C2)n1 (stereo not given) the result was LdMetRS: 10%.
For CCC(NC(=O)C1CCN(S(C)(=O)=O)CC1)c1ccc(OC)cc1 (stereo not given) the result was Mtb heat-shock: 5.553%; Mtb growth Cornell: -3.672%; LdMetRS: 10.63%.
For O=C([C@H]1CN(Cc2nccs2)C[C@H]2OCC[C@@H]12)N1CCCCO1 the result was LdMetRS: 12.64%.
For CCc1noc(CN2CCCN(C(C)=O)CC2)n1 the result was Mtb heat-shock: -4.536%; LdMetRS: 27.89%.
For CC(C)S(=O)(=O)N(C)C(=O)CCc1ccsc1 the result was Mtb heat-shock: -43.77%; Mtb growth Cornell: -15.42%; LdMetRS: 13.04%.
For Cc1cc2cc(CNC(=O)c3cnn4c3OCCC4)ccc2[nH]1 the result was Mtb heat-shock: -3.691%; Mtb growth Cornell: -71.37%; LdMetRS: 14.39%.
For Cc1cnc(CNC(=O)[C@@]23CCO[C@@H]2CCN(c2ncccn2)C3)cn1 the result was LdMetRS: 10.85%.
For c1ccc(OCCNC2CCCN(Cc3noc(C4CC4)n3)C2)cc1 (stereo not given) the result was Mtb heat-shock: -6.927%; LdMetRS: 23.38%.
For COc1cccc(-c2noc(C3CCN(Cc4cccs4)C3)n2)c1.Cl (stereo not given) the result was Mtb heat-shock: -8.695%.
For COc1cc(Br)cc(CNC2CCCNC2=O)c1O (stereo not given) the result was Mtb heat-shock: 11.25%; Mtb growth Cornell: -51.6%; LdMetRS: 3.866%.
For Cc1cc(C(=O)N2CCCC2)ccc1NCC(=O)N1CCOCC1 the result was Mtb heat-shock: -8.034%; LdMetRS: 13.64%.
For CN(C)CC1CN(C(=O)CCc2ccccc2)Cc2nccn2C1.O=C(O)C(F)(F)F (stereo not given) the result was Mtb heat-shock: -25.72%; Mtb growth Cornell: 1.478%.
For CC(C)CCNC(=O)c1ccc(-c2ccco2)[nH]c1=O the result was Mtb heat-shock: 8.22%; Mtb growth Cornell: 21.99%; LdMetRS: 7.617%.
For CC1CCN(S(=O)(=O)c2cccn(CC(=O)N3CCOCC3)c2=O)CC1 the result was Mtb heat-shock: -10.32%; LdMetRS: 4.564%.
For CCN1CC2(CC1=O)CN(Cc1ccco1)CCN(C(=O)N(C)C)C2.O=C(O)C(F)(F)F (stereo not given) the result was Mtb heat-shock: -31.68%; Mtb growth Cornell: 47.83%.
For CCn1cnnc1C1CCN(C(=O)c2ccc3cc[nH]c3c2)CC1 the result was Mtb heat-shock: 4.056%; Mtb growth Cornell: -3.733%; LdMetRS: 8.451%.
For Cc1cc2c(=O)n3c(nc2s1)CCN(Cc1cnn(C)c1C)CC3.Cl the result was Mtb heat-shock: -12.48%; Mtb growth Cornell: -41.11%.
For Nc1nnc(CCNC(=O)c2cccc(C3CCCNC3)c2)s1 (stereo not given) the result was Mtb heat-shock: -33.27%; Mtb growth Cornell: 4.454%; LdMetRS: 2.326%.
For COc1cc(-n2cccc2)c(Cl)cc1C(=O)NS(C)(=O)=O the result was Mtb heat-shock: -22.43%; Mtb growth Cornell: -17.96%; LdMetRS: 10.64%.
For c1ccc(CO[C@@H]2CN(Cc3nccs3)[C@@H]3COC[C@@H]32)nc1 the result was LdMetRS: 18.09%.
For CCn1ncc2c1C(COCC1CC1)CN(C(=O)c1ccncn1)C2.O=C(O)C(F)(F)F (stereo not given) the result was Mtb heat-shock: 1.318%; Mtb growth Cornell: -10.56%.
For COCCNC(=O)c1cc(S(=O)(=O)N2CCCC2)cs1 the result was Mtb heat-shock: -14.06%; LdMetRS: -4.396%.
For c1coc(-c2nc(CN3CCOC(Cn4cccn4)C3)cs2)c1 (stereo not given) the result was Mtb heat-shock: -27.49%; Mtb growth Cornell: -15.17%; LdMetRS: 6.355%.
For Cc1cnn(CC2CCN(CC(O)COc3ccccc3)CC2)c1 (stereo not given) the result was Mtb heat-shock: 0.4984%; Mtb growth Cornell: 15.01%; LdMetRS: 13.09%.
For CCOc1cc2c(cc1CN1CCC3(CCCNC3=O)C1)CCC2 (stereo not given) the result was Mtb heat-shock: 14.81%; LdMetRS: 4.961%.

Once more, the final 4:

{"compound": "COCCNC(=O)c1cc(S(=O)(=O)N2CCCC2)cs1", "Mtb heat-shock": -14.06, "LdMetRS": -4.396}
{"compound": "c1coc(-c2nc(CN3CCOC(Cn4cccn4)C3)cs2)c1", "stereo": "stereo not given", "Mtb heat-shock": -27.49, "Mtb growth Cornell": -15.17, "LdMetRS": 6.355}
{"compound": "Cc1cnn(CC2CCN(CC(O)COc3ccccc3)CC2)c1", "stereo": "stereo not given", "Mtb heat-shock": 0.4984, "Mtb growth Cornell": 15.01, "LdMetRS": 13.09}
{"compound": "CCOc1cc2c(cc1CN1CCC3(CCCNC3=O)C1)CCC2", "stereo": "stereo not given", "Mtb heat-shock": 14.81, "LdMetRS": 4.961}

From ChEMBL document CHEMBL3988442, “University of Dundee, Small-Polar-MMV Screening Library” (2021).